Source: the supplement of paper PMC12067093, “Discovery and optimisation of a covalent ligand for TRIM25 and its application to targeted protein ubiquitination” (Chemical Science, 2025)
This is one part of the list.

Chains of the proteins cited; added tags and fusions are not shown. Lines headed by an entry give the natural chain unless they say otherwise; changes in a name come on top.
UniProt Q9BUT1: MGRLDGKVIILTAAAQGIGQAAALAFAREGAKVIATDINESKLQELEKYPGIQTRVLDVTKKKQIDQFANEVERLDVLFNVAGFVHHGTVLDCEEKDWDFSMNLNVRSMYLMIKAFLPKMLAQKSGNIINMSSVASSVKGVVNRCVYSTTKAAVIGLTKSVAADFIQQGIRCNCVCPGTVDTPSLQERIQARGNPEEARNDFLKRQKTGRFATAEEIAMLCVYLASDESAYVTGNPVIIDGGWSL
UniProt Q14137: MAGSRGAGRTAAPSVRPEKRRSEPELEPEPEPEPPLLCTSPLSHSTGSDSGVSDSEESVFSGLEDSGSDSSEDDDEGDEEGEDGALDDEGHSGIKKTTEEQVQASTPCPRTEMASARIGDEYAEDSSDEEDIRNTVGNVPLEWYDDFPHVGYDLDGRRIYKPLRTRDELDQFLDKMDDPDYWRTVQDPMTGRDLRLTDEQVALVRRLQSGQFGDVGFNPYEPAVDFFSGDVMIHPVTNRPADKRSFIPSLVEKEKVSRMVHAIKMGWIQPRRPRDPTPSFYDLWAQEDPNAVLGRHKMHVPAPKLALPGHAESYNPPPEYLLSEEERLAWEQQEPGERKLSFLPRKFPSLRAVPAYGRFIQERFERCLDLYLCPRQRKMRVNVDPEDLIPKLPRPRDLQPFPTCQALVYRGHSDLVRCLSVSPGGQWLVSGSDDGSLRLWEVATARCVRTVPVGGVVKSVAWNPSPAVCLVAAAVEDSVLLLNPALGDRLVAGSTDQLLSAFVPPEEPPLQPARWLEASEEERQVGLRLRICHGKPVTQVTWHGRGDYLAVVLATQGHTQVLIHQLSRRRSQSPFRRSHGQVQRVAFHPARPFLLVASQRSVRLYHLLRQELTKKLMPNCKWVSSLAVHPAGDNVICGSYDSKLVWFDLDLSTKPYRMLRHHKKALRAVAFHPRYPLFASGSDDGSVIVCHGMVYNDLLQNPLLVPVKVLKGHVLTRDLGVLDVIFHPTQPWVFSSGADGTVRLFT
UniProt Q9NRL2: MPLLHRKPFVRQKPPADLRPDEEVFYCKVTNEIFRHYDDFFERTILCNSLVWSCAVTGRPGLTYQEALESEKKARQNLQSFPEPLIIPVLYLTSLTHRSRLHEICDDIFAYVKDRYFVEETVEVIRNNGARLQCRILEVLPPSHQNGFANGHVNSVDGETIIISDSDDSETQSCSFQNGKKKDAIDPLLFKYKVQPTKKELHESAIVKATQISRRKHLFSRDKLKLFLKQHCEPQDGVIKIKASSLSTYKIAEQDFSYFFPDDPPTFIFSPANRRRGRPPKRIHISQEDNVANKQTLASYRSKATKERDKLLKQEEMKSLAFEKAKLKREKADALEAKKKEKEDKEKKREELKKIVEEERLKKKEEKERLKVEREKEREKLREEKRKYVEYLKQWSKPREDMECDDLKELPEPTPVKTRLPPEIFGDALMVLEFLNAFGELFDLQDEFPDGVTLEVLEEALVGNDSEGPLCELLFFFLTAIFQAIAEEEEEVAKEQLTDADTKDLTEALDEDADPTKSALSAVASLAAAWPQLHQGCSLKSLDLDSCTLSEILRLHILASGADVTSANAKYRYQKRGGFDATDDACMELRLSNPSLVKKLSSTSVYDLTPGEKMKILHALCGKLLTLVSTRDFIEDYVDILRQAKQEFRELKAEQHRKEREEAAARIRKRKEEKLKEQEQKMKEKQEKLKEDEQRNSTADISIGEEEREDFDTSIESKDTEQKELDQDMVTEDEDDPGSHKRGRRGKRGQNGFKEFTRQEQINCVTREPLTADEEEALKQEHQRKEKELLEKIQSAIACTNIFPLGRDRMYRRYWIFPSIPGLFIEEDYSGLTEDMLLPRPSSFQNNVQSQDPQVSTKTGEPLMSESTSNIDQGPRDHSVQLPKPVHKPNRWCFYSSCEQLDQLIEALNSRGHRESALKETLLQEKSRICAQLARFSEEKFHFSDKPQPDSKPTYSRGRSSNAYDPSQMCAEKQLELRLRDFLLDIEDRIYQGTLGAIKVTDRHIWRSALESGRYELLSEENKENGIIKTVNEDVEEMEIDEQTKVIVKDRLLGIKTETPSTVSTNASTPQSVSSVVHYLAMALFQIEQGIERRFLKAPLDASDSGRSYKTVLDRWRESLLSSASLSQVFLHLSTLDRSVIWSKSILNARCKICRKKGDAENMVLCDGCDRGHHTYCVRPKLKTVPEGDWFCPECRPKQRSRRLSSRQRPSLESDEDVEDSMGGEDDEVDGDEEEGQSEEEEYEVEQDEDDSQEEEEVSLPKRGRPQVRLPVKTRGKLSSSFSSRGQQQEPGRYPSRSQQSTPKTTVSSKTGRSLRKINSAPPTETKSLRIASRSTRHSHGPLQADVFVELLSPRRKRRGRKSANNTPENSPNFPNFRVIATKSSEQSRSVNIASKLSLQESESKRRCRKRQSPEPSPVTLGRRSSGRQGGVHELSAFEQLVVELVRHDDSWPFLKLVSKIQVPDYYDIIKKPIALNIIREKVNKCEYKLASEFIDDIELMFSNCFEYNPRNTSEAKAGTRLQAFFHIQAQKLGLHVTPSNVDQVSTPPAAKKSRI
UniProt Q9NSY1, whole entry, looked up: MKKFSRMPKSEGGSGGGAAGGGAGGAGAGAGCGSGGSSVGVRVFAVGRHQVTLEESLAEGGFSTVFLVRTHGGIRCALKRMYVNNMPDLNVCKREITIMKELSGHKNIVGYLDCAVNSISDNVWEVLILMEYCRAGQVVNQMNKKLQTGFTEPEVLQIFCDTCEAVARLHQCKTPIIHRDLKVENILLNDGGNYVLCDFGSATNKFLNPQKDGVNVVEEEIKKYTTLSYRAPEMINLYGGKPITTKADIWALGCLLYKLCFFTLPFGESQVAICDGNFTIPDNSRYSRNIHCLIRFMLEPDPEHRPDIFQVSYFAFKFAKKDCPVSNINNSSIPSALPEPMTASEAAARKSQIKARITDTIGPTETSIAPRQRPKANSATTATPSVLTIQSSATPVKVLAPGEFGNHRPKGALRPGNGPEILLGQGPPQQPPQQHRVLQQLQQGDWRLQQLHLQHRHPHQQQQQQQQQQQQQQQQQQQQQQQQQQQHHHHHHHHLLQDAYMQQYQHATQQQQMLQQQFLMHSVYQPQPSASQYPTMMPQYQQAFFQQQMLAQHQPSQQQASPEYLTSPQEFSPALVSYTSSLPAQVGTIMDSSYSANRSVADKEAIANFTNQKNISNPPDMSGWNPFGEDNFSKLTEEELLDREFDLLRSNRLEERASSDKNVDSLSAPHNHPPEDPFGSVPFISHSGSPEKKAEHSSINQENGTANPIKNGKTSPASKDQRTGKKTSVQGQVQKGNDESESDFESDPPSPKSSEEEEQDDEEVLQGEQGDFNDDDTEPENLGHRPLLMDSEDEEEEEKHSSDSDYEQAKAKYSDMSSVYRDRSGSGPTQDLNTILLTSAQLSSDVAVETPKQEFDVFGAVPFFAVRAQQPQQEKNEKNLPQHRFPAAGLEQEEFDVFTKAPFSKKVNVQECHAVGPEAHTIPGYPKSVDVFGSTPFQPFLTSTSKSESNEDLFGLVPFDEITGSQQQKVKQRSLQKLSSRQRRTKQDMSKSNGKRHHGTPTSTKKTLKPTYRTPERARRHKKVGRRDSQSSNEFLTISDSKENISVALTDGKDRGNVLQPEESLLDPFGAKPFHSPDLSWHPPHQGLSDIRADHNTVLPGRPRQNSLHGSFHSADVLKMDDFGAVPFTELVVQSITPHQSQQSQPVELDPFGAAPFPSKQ
UniProt A6H8Y1: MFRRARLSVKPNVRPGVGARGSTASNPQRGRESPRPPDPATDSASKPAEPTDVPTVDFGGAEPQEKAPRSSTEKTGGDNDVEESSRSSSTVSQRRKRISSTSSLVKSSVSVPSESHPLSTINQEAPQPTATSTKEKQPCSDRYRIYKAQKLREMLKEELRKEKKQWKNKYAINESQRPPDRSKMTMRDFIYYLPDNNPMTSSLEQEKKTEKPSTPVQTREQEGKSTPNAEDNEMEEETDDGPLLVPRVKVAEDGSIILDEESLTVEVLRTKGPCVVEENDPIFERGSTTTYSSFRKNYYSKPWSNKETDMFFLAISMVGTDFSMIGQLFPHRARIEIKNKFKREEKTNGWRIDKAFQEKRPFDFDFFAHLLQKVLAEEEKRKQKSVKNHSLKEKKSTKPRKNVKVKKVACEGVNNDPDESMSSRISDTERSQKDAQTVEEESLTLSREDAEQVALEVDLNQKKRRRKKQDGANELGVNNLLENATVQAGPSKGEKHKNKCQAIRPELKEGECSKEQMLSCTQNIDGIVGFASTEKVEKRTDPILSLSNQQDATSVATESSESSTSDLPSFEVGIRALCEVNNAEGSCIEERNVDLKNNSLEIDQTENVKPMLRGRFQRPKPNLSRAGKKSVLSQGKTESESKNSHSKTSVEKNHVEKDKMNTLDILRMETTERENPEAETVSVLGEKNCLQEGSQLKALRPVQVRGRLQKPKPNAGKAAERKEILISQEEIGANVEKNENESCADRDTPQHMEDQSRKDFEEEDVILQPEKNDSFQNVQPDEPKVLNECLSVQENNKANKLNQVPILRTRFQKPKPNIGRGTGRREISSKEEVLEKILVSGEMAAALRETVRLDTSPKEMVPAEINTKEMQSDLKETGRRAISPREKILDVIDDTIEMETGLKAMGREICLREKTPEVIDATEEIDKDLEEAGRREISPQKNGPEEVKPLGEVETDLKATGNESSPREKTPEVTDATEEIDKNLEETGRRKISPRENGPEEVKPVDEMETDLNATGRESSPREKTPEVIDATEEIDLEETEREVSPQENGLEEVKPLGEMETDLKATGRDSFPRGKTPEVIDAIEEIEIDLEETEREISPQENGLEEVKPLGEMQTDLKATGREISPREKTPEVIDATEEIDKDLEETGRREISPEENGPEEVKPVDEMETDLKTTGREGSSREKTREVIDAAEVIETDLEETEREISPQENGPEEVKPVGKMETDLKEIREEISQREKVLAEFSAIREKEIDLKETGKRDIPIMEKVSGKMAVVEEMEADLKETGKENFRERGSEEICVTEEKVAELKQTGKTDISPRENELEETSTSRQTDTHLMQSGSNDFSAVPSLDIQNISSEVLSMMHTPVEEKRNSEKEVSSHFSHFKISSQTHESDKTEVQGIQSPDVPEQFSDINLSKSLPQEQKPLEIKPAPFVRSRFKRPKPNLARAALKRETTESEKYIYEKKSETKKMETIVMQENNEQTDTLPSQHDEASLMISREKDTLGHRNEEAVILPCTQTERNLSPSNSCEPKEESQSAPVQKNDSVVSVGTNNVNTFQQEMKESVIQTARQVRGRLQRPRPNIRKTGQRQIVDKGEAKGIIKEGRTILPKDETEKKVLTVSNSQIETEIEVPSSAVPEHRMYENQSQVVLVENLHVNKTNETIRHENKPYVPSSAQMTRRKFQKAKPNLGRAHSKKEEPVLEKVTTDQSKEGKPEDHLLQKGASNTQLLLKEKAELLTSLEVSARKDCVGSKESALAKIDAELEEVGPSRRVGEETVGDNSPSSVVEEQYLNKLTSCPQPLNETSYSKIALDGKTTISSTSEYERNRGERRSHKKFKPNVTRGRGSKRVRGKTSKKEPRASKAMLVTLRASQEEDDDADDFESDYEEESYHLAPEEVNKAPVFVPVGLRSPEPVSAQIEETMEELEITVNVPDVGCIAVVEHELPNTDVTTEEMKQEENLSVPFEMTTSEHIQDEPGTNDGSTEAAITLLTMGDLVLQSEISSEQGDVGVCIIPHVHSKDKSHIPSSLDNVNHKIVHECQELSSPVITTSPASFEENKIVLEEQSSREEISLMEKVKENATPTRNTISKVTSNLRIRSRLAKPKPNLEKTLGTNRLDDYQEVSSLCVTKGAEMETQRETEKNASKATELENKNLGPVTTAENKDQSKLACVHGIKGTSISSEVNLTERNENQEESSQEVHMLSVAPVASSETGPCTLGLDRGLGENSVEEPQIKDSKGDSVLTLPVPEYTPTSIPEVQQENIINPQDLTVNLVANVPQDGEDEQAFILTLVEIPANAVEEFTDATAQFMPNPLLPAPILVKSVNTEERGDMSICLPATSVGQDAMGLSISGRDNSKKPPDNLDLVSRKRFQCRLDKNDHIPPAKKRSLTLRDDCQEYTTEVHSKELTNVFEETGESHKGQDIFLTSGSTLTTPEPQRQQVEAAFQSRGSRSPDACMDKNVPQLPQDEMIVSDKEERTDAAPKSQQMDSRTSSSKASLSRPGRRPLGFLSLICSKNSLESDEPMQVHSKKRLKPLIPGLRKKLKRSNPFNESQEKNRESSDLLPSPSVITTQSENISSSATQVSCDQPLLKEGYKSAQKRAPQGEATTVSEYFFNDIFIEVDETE

Compound: Cc1cc(ccc1-c1ccccc1)C(=O)N1CCCN(CC1)C(=O)CCl [compound 10]
Test: probe-labelled cysteine peptide fold change vs DMSO (competition) (log2 fold change); higher = less target engagement (more negative = stronger competition)
Settings: 50 µM; THP-1; incubation time: 4 h
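Also: competitive profiling in live THP-1 cells: cysteine peptides tagged with an iodoacetamide desthiobiotin (IA-DTB) probe, intensity after compound treatment relative to DMSO-treated cells.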

Target | probe-labelled cysteine peptide fold change
BIRC6_Q9NR09_1183_LCPFLEDHKEDILCGPVWLASGLDLSGHAGMLTLTSPK (UniProt Q9NR09) | -0.00448
BAZ2A_Q9UIF9_1697_GDNDEFLLLCDGCDR (UniProt Q9UIF9) | -0.246
BAZ1B_Q9UIG0_1213_AFHLFCLR (UniProt Q9UIG0) | -0.0178
BAZ1B_Q9UIG0_1228+1231_AFHLFCLRPALYEVPDGEWQCPACQPATAR (UniProt Q9UIG0) | -0.43
BAHD1_Q8TBE0_764_TVPEDTDPELVFLCR (UniProt Q8TBE0) | -0.251
BDH2_Q9BUT1_93_LDVLFNVAGFVHHGTVLDCEEK (UniProt Q9BUT1) | 0.424
BIRC6_Q9NR09_355_HSPNCPFVK (UniProt Q9NR09) | -0.108
BAZ1B_Q9UIG0_1096_DFGECVIALQASVIK (UniProt Q9UIG0) | 0.323
BPTF_Q12830_1357_LASADDIGTLICK (UniProt Q12830) | -0.457
BOP1_Q14137_373_CLDLYLCPR (UniProt Q14137) | -0.316
BAZ1A_Q9NRL2_970_SSNAYDPSQMCAEK (UniProt Q9NRL2) | -0.345
BMP2K_Q9NSY1_912_KVNVQECHAVGPEAHTIPGYPK (UniProt Q9NSY1) | -0.787
BAZ1A_Q9NRL2_1177_GHHTYCVRPK (UniProt Q9NRL2) | -0.00209
BDP1_A6H8Y1_2039_IVHECQELSSPVITTSPASFEENK (UniProt A6H8Y1) | -0.41
BMI1_P35226_166_CPAAMTVMHLR (UniProt P35226) | 0.04
AZU1_P20160_207_RGGICNGDGGTPLVCEGLAHGVASFSLGPCGR (UniProt P20160) | 0.156

A few values from the results shown.
BAZ1A_Q9NRL2_1177_GHHTYCVRPK (UniProt Q9NRL2) | probe-labelled cysteine peptide fold change: -0.00209
BMP2K_Q9NSY1_912_KVNVQECHAVGPEAHTIPGYPK (UniProt Q9NSY1) | probe-labelled cysteine peptide fold change: -0.787
